The campaign covered roughly 6,900 compounds. Fewer than 10 were called active. The call rests on the fitted dose curve; in most records, active means well fitted curve in the direction sought with a large enough effect; inconclusive means small, poorly fitted or top-dose-only effect, or another doubt; inactive means no such curve, though single readings can be large or run the other way. The list shows a part of the results.
Molecular target: Metallo-beta-lactamase type 2 (Klebsiella pneumoniae) (UniProt C7C422)
Assay: qHTS to identify inhibitors of the New Delhi Metallo-beta-lactamase (NDM): primary screen against the NCATS Gemini Collection; further: % of control where 0% means no effect
Settings: NDM-1 enzyme, meropenem hydrolysis, absorbance 300 nm; at 38.4 µM (top of the series) unless noted
Outline: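 NDM-1 at 2 nM final in 50 mM HEPES pH 7.0, 1 uM ZnSO4, 0.01% Tween20, preincubated >30 min with compound. Meropenem 50 uM final added; absorbance at 300 nm after 30 min.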

Amino acid sequences for entries named in this document (tags omitted). A change or cut given only in a name is not applied to a line headed by its entry.
UniProt C7C422: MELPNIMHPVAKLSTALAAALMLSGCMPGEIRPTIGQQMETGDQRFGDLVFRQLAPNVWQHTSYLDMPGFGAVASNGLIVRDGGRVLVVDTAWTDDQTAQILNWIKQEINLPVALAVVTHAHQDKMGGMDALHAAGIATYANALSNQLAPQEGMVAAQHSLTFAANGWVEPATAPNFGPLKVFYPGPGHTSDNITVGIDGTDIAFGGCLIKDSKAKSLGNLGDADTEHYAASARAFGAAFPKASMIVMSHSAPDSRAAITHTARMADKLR

| Compound | activity % (negative = inhibition) |
| --- | --- |
| CNC1=C(c2ccc(F)cc2)C(=O)N(Cc2ccccc2)C1 | inactive: 12.4% |
| CCn1ncnc1C(C)NC(=O)Cn1nc(-c2ccccc2)n(CC)c1=O (configuration not stated) | inactive: -7.75% |
| O=C(O)c1cnc(-c2ccccc2)nc1-c1ccncc1 | inactive: 6.13% |
| O=C(COc1ccccc1)N1CCOC[C@H](Oc2ccccc2)C1 | inactive: 6.86% [at 57.5 µM] |
| Cc1cc(C(=O)N2CC(N(C(=O)NC(C)C)C3CCOCC3)C2)nn1C | inactive: -2.63% |
| c1ccc(-c2[nH]nc3ncc(-c4cn[nH]c4)nc23)cc1 | inactive: 2.58% [at 77.1 µM] |
| O=C(NCCc1ccc(Cl)cc1)C1CCc2nnc(CN[S+](=O)([O-])c3ccccc3Cl)n21 (configuration not stated) | inactive: -0.104% |
| CC(Cc1ccncc1)Nc1nccc(-c2cnn(-c3ccccc3)c2)n1 (configuration not stated) | inactive: 8.98% |
| Cc1oc2ccn(Cc3cccc(F)c3)c(=O)c2c1C(=O)NC1CCCC1 | inactive: 3.3% |
| C[S+](=O)([O-])NC1CC2(CCN(C(=O)c3ccccc3)CC2)c2ccccc21 (configuration not stated) | inactive: -1.27% |
| O=C1Nc2ccccc2CC12CCCN2C1COC1 (configuration not stated) | inactive: 17.5% [at 57.5 µM] |
| Fc1cccc(-c2cc(-c3cn[nH]c3)c3cncn3c2)c1 | inactive: 3.29% [at 77.1 µM] |
| CCOC(=O)C1CCN(C(=O)C2CCc3nnc(CN[S+](C)(=O)[O-])n32)CC1 (configuration not stated) | inactive: 19.1% |
| Cc1cccc(S(=O)(=O)N2CCCC(Cn3c(C4CC4)nc4cccnc43)C2)c1 (configuration not stated) | inactive: 3.17% |
| C#CCN(C)C(=O)C[C@@H]1c2nc(NC(=O)CCCCC)sc2C[C@@H]2[C@](C)(CO)[C@H](O)CC[C@]21C | inactive: 0.767% |
| COc1ccc(OC)c(S(=O)(=O)NCC2CNCCOC2)c1 (configuration not stated) | inactive: -0.32% |
| COCC(=O)N[C@H]1CCN(C(=O)COC)[C@H](C(=O)N[C@H](Cc2ccccc2)C(N)=O)C1 | inactive: 13% [at 57.5 µM] |
| O=C(Cc1ccsc1)Nc1ccc2c(N3CCCC3)ncnc2c1 | inactive: 1.1% |
| O=C1NCCOCCN(C(=O)NC2CCCCC2)[C@@H]2CCCC[C@H]12 | inactive: 0.348% |
| COCCCNC(=O)C1(CCO)CCN(c2ncccn2)C1 (configuration not stated) | inactive: 26.2% |
| COc1ccc(-c2nc3c(C)cccc3cc2CN2CCC(O)CC2)cc1OC | inactive: 0.559% |
| O=c1[nH]nc2n1CCN(C1CCOCC1)CC2 | inactive: -9.23% |

| Compound | activity % (negative = inhibition) |
| --- | --- |
| Fc1cnc(N2CCCC(OCc3cccnc3)C2)nc1N1CCOCC1 (configuration not stated) | inactive: 2.89% |
| O=C(CC1CCCN(c2cn[nH]c(=O)c2)C1)N1CCCCC1 (configuration not stated) | inactive: 11.3% |
| O=C(NCc1ccco1)NC1CCc2nnc(C3CC3)n2CC1 (configuration not stated) | inactive: 5.01% |
| O=C(c1cccs1)N1CCc2[nH]nc(-c3cccc(F)c3)c2C1 | inactive: -1.03% |
| COc1ccc(C(=O)N2CCC(N3Cc4cnc(C)n4C3=O)CC2)cc1 | inactive: 23.7% |
| COc1ccc(C2(C(=O)N3CCC[C@H]3c3nc(-c4ccccc4Cl)no3)CC2)cc1 | inactive: 9.01% |
| CCN1CCN(C(=O)C2CCCN(Cc3ccncc3)CCC(=O)NCC2)CC1 (configuration not stated) | inactive: 8.36% |
| O=C(NCc1ccc(F)cc1)C1=NOC2CN(C(=O)Nc3cccnc3)CC12 (configuration not stated) | inactive: 4.5% |
| CCc1ccc(S(=O)(=O)N2c3ccccc3CC2c2nnc(C3CCOCC3)o2)cc1 (configuration not stated) | inactive: 0.344% |
| CCCS(=O)(=O)NCC1Cn2cccc2C(=O)N1CCOC (configuration not stated) | inactive: -0.29% |
| O=C1CC2(CCN(Cc3ccc(C(F)(F)F)cc3)CC2)Oc2ccccc21 | inactive: 0.312% |
| Cc1ccc(C#N)c(NCc2cccnc2Oc2cccc(C(F)(F)F)c2)n1 | inactive: 2.34% |
| COCC1CN(C)CC12CCN(C(=O)CCc1ccc(OC)cc1)CC2 (configuration not stated) | inactive: -5.86% |
| CNC(=O)[C@@H]1C[C@H](n2cc(CNS(=O)(=O)c3cc(C)ccc3F)nn2)CN1 | inactive: 10.1% |
| Cc1nnc2n1CCC(NC(=O)CCCc1nc3ccccc3s1)CC2 (configuration not stated) | inactive: 5.53% |
| COc1cccc(CNC(=O)[C@@]23CCCC[C@H]2N(CCc2ccccc2)C(=O)CC3)c1 | inactive: 1.42% |
| Cc1nc(C2CC(O)C2)cc(N2CCC(c3nncn3C)CC2)n1 (configuration not stated) | inactive: 37.3% |
| CCOc1ccccc1CN1CCC2(Cc3ccccc3CNC2=O)C1 (configuration not stated) | inactive: 1.18% |
| CN(Cc1ccc(Oc2ncccn2)cc1)CC1CCN(CCc2ccc(F)cc2)CC1 | inactive: 3.29% |
| CN(C1CCc2nn(CC3CC3)c(=O)n2CC1)S(=O)(=O)c1cccnc1 (configuration not stated) | inactive: 0.54% |
| CNC(=O)[C@@H](CC(C)C)N1CCC[C@H]1C(=O)N1CCN(C)CC1 | inactive: -0.541% [at 57.5 µM] |
| CC1=NS(=O)(=O)N(CCc2ccccc2)C=C1C(=O)O | inactive: 6.08% |

| Compound | activity % (negative = inhibition) |
| --- | --- |
| CCCCc1nn(CC(=O)N2CCCC2c2nc(C3CC3)no2)c(=O)n1CC (configuration not stated) | inactive: -0.052% |
| Cc1cccn2c(CC(=O)N3CCn4nc(CO)cc4C3)cnc12 | inactive: 58.7% |
| Cc1nc(C)c(C(=O)Nc2nn(Cc3ccccc3)c3cccc(OC(C)C)c23)o1 | inactive: -4.28% |
| O=C(Nc1cccc(-c2nnc3n2CCCC3)c1)c1ccccn1 | inactive: 25.4% |
| CC1(C)CN(C(=O)c2ccc(Oc3ccccc3)o2)CC1(C)O (configuration not stated) | inactive: 5.45% |
| Cc1ccsc1CN1CCCOCCNC(=O)[C@@H]2CCCC[C@@H]21 | inactive: -2.12% |
| O=S(=O)(c1cnc[nH]1)N1CCC(c2nc(CCOCC3CC3)no2)C1 (configuration not stated) | inactive: -2.63% |
| COc1cc(OC)nc(N2C[C@H]3OC(=O)N(Cc4ccccc4OC)[C@H]3C2)n1 | inactive: 54.2% |
| CC(=O)NC[C@@H]1C=C(C)[C@H](Cc2nnc(-c3cncn3C)o2)C[C@H]1C(C)C | inactive: 0.199% [at 57.5 µM] |
| O=C(c1noc2c1CCCC2)N1CCOc2ccc(CN3CCN(c4ccccn4)CC3)cc2C1 | inactive: -4.86% |
| COc1ccccc1C(=O)N1CC(N(C)c2ccccc2C)C1 | inactive: -0.001% |
| COc1ccc(-c2cc(C(=O)NCc3cccnc3)c3c(c2)N(C)CCO3)cc1OC | inactive: 2.63% [at 57.5 µM] |
| CCOC(=O)C1CCCN(C(=O)c2cc(-c3ccc(Cl)cc3Cl)c3nncn3n2)C1 (configuration not stated) | inactive: 9.14% |
| CC1CCN([C@@H]2[C@H](O)[C@H](CO)O[C@@H]2CNC(=O)c2cccs2)CC1 | inactive: -0.0979% [at 57.5 µM] |
| O=C(CN1C(=O)C(c2ccccc2)=NC12CCCCCC2)NCC1CCCO1 (configuration not stated) | inactive: 66.9% |
| O=c1ncn(Cc2ccccc2)c2ccc(-c3ccoc3)nc12 | inactive: 30.1% [at 57.5 µM] |
| CCOC(=O)[C@@H]1CN([S+](=O)([O-])Cc2ccccc2)[C@H]2c3ccc(OC)cc3O[C@@H]12 | inactive: 8.8% |
| O=C(CCC1CCCC1)N1CC(N(Cc2ccccn2)C(=O)Nc2ccccc2)C1 | inactive: -19.2% |
| C=CCNC(=O)C[C@@H]1CCN(C(=O)c2ccccc2)C[C@@H]1CC | inactive: 4.93% [at 57.5 µM] |
| CC(c1ccccn1)N(C)Cc1ccc(S(C)(=O)=O)cc1 (configuration not stated) | inactive: 2.62% |
| COC(=O)CNC(=O)N1CCCCCCNC(=O)[C@@H]2C[C@@H](c3nc(-c4cccnc4)no3)C[C@@H]21 | inactive: 36.7% |
| CCC(=O)N(C1CCOCC1)C1CCN(S(=O)(=O)c2c(C)nn(C)c2C)CC1 | inactive: 20.6% |

3 compounds from above, arranged by formula weight, rising:

| Compound | activity % (negative = inhibition) |
| --- | --- |
| COc1ccccc1C(=O)N1CC(N(C)c2ccccc2C)C1 | inactive: -0.001% |
| COc1ccc(-c2cc(C(=O)NCc3cccnc3)c3c(c2)N(C)CCO3)cc1OC | inactive: 2.63% [at 57.5 µM] |
| O=C(c1noc2c1CCCC2)N1CCOc2ccc(CN3CCN(c4ccccn4)CC3)cc2C1 | inactive: -4.86% |

The results go on.

| Compound | activity % (negative = inhibition) |
| --- | --- |
| COCCNC(=O)[C@H]1C[C@H](Oc2cccnc2)CN1C(=O)Nc1cccc(C)c1 | inactive: 1.34% |
| CN(Cc1ccccc1)C(=O)CCc1nc(C2CCCN2C(=O)C2CCC2)no1 (configuration not stated) | inactive: -6.91% |
| CC(=O)c1c(C)nn(CCC(=O)N[C@@H]2CCOC[C@H]2OCCO)c1C | inactive: -1.72% |
| COc1cccc(C(=O)NC2CCN(c3cc(-c4cccs4)[nH]n3)CC2)c1OC | inactive: 0.767% |
| COC[C@H]1CCCN1Cc1cn(-c2ccccc2C)nc1-c1ccc(OC)c(F)c1 | inactive: -0.765% |
| O=C(c1cc2cc(F)ccc2[nH]1)N1CCCC(CO)(Cc2cccc(Cl)c2)C1 (configuration not stated) | inactive: 3.74% |
| Cn1ccnc1CN1CCN(CC2(O)CNCCOC2)CC1 (configuration not stated) | inactive: 9.69% |
| CN1CCN([C@H]2CCN(C(=O)CCCc3cn[nH]c3)C[C@H]2CCC(=O)O)CC1 | inactive: 0.18% |
| COCCN1CCCCCC(O)c2cc(C(=O)Nc3ccc(C)cc3)ccc21 (configuration not stated) | inactive: -6.76% |
| Cc1cc(C)n2nc(C(=O)N3CCCC4(CNC(=O)O4)C3)cc2n1 (configuration not stated) | inactive: -0.656% |
| N#Cc1cccc(CN2CCCC(CNS(=O)(=O)Cc3ccccc3)C2)c1 (configuration not stated) | inactive: -0.423% |
| Cc1ccc(-c2ccc(N)nc2)c2cccnc12 | inactive: 4.97% |
| Cc1ccc(CNC(=O)CCc2nc(C3CCCN3S(C)(=O)=O)no2)o1 (configuration not stated) | inactive: 5.63% |
| COc1ccccc1C1CCN(Cc2cn(-c3ccccc3)nn2)CC1 | inactive: -0.117% |
| CN(CCc1cnn(C)c1)C(=O)c1coc(COc2cccc(C(F)(F)F)c2)n1 | inactive: 2.03% |
| CCn1cc(-c2ccc(C)cc2)cc1C(=O)O | inactive: 15.2% |
| COc1cccc(Nc2ncc3c(n2)C(C)(C(=O)NC2CCOCC2)CC3)c1 (configuration not stated) | inactive: 26.8% [at 57.5 µM] |
| O=C(Cc1ccccc1Cl)NC1CCN(c2cc(-c3cccs3)[nH]n2)C1 (configuration not stated) | inactive: 27% |
| Cc1nnc([C@@H]2CC(F)(F)CN2C(=O)c2nccc3ccccc23)o1 | inactive: 5.2% |
| Cc1ccccc1N1Cc2c(NCc3ccc(F)cc3)ncnc2N(C)CC1=O | inactive: 21.2% |
| O=C(NCc1cccnc1)C1CCN(C2CCN(Cc3ccc4c(c3)CCO4)CC2)CC1 | inactive: -1.25% |
